For the assay, the target named is moesin (MSN) (mouse (endogenous in EO771)) (UniProt P26041). Briefly: co-IP; rabbit antibody to MSN on protein A sepharose, incubated overnight with EO771 extracellular matrix proteins; washed three times with PBS; blot for FN1; rabbit IgG as negative control.

By UniProt entry, the sequences of proteins in these tests, tags left out. Residues count along the entry.
UniProt P26041: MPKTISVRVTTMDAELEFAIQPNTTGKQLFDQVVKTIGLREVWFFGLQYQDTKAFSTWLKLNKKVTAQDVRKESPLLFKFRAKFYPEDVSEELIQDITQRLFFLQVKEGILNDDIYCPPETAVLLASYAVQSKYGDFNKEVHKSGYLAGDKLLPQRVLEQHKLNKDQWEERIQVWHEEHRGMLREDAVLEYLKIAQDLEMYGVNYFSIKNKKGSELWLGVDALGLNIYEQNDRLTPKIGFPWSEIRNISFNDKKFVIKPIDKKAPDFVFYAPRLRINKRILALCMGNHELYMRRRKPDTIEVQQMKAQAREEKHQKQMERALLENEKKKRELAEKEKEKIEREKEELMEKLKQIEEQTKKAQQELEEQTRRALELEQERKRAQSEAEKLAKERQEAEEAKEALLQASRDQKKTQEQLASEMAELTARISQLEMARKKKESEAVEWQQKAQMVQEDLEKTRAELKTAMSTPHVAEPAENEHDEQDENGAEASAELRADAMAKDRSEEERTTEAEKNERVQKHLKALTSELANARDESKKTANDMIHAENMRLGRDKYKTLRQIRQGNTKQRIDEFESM
UniProt P11276, residues 33-2477: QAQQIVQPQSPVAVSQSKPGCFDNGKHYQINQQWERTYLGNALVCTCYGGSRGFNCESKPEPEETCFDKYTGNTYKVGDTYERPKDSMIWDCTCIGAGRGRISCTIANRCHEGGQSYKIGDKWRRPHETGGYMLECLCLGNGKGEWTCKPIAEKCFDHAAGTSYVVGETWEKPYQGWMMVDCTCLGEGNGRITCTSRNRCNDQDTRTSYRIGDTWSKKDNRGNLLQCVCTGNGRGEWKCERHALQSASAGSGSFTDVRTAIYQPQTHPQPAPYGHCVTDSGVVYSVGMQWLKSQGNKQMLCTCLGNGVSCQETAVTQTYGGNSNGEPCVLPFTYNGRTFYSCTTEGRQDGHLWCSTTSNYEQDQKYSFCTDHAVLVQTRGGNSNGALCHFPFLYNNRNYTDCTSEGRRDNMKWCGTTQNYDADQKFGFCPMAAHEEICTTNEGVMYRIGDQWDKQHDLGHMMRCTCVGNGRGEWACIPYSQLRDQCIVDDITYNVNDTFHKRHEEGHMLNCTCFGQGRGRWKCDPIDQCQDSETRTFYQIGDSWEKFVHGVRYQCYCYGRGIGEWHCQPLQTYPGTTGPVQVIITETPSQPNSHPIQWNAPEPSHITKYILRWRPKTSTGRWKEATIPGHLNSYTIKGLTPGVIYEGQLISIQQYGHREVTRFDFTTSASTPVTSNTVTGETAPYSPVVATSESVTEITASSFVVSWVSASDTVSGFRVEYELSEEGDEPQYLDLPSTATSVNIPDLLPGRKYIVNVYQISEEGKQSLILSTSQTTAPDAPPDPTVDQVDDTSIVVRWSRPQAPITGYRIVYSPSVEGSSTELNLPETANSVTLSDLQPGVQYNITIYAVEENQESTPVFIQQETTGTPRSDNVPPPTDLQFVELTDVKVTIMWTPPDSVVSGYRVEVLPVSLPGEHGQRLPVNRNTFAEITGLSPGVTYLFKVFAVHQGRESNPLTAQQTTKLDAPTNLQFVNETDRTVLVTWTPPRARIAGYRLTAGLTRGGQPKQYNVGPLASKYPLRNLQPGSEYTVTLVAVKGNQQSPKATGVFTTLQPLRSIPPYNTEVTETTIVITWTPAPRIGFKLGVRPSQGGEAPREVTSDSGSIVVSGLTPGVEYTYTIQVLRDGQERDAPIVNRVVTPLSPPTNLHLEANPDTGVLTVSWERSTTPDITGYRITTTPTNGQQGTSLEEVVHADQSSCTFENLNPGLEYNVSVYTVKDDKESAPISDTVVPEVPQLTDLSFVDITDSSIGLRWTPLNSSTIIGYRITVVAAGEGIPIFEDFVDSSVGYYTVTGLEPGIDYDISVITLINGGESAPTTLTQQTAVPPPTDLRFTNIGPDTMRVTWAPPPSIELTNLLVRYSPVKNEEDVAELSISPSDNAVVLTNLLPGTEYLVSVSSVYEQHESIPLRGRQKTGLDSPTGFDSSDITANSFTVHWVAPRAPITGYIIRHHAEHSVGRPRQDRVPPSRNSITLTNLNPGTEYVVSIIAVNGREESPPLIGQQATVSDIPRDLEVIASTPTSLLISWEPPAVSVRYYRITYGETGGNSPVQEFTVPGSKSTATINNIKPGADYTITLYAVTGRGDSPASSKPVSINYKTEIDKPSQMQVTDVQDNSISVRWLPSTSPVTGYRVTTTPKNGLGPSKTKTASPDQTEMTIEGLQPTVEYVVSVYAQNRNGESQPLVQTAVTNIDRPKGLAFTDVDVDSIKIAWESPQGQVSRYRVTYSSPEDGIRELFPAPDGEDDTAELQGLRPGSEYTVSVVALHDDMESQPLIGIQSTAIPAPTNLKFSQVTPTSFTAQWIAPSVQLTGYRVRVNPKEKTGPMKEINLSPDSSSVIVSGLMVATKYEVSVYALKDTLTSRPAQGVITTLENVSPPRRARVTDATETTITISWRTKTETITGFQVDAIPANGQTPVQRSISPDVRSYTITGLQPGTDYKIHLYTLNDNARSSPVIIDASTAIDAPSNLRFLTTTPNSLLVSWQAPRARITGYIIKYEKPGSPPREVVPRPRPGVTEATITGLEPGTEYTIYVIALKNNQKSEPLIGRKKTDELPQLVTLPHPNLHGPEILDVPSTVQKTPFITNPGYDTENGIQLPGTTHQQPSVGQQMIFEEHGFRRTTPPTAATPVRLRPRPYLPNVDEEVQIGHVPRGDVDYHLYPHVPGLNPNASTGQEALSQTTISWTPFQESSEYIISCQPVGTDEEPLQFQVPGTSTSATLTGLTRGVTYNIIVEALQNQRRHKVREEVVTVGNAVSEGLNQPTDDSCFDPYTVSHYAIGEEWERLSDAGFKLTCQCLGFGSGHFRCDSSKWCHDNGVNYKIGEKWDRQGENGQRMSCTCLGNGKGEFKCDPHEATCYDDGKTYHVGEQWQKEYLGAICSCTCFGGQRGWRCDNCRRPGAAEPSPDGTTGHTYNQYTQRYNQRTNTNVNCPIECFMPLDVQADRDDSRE

Experimental findings from article PMC8692912 are described below.

Results are given in words; binding and its absence hold for the method and conditions named. In cells and extracts the contact can be indirect. Some results given as binding are weak or reduced against the parent protein; the word gives no strength.

Turning to “fibronectin 1 (FN1) (from UniProt P11276 33-2477)”, the binding entry is “binds”.
